According to the supplement of paper PMC12819154, “High-throughput peptide-centric local stability assay extends protein–ligand identification to membrane proteins, tissues and bacteria” (Nature Structural & Molecular Biology, 2025):
Some of the results follow. Most values lie at the level of the controls, where differences are scatter.

The chains behind the UniProt entries cited, without tags or fusion partners. Where a name states a change or a piece, a line headed by the entry shows the natural chain unless it says otherwise.
UniProt Q91WT9: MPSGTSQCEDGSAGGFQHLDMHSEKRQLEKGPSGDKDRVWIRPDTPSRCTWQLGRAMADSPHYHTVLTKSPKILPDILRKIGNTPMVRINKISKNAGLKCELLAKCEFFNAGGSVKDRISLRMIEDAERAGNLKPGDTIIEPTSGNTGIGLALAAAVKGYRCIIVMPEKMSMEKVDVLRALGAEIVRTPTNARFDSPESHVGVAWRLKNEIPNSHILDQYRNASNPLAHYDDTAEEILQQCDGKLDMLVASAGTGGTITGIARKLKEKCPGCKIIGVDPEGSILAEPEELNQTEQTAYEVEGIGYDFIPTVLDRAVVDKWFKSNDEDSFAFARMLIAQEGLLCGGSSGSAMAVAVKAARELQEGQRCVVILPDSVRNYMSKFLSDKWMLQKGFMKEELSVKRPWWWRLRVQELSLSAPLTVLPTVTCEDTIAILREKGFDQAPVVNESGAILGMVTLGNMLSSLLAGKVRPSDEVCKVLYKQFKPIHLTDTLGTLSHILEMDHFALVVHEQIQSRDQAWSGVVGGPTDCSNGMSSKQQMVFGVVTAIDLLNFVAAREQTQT
UniProt Q99J47: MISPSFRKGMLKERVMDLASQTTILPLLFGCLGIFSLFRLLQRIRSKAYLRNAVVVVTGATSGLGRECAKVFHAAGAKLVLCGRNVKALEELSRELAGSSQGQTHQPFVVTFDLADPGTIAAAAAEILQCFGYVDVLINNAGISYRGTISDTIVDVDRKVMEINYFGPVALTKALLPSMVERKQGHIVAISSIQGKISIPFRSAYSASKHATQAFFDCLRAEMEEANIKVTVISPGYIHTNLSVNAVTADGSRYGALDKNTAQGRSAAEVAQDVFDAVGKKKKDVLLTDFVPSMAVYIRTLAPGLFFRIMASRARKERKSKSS
UniProt Q91XE0: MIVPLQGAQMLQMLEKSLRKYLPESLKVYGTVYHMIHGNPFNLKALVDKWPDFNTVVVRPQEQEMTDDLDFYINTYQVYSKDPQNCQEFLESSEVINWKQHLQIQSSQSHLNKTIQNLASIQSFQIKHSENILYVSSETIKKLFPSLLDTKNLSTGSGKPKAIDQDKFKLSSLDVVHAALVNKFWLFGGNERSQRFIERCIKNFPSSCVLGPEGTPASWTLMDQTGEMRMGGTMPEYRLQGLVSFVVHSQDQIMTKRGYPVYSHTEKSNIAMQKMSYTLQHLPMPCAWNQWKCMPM
UniProt Q925B0: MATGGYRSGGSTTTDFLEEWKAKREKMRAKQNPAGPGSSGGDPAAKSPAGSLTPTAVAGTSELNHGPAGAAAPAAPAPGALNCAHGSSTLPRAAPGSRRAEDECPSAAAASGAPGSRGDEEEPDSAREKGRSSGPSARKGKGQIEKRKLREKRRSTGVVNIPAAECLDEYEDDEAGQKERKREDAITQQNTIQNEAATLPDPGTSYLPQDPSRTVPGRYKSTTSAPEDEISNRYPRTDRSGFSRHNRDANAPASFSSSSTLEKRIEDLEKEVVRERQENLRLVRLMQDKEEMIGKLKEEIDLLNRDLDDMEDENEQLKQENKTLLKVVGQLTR
UniProt Q91VH6: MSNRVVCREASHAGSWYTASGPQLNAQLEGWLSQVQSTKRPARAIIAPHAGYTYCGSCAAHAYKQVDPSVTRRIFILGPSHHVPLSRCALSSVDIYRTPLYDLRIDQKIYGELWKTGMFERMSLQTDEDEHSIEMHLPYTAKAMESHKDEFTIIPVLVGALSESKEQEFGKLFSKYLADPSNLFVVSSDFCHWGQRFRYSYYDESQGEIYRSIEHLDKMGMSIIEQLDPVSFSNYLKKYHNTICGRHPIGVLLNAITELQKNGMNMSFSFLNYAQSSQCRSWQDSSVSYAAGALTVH
UniProt Q8VH51: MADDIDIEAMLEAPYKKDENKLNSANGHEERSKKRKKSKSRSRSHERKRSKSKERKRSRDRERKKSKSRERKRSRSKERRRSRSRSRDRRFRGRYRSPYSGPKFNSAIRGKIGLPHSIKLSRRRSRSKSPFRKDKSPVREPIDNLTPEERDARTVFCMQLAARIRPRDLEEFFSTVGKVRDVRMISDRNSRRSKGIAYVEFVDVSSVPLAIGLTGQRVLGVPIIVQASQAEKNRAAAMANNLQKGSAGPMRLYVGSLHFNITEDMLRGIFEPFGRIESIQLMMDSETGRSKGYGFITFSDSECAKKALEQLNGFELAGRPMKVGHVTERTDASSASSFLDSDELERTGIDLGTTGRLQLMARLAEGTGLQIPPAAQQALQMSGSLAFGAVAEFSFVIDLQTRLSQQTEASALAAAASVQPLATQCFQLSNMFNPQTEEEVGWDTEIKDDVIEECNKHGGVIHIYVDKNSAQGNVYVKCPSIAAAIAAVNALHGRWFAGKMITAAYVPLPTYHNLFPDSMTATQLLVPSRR
UniProt Q923B6: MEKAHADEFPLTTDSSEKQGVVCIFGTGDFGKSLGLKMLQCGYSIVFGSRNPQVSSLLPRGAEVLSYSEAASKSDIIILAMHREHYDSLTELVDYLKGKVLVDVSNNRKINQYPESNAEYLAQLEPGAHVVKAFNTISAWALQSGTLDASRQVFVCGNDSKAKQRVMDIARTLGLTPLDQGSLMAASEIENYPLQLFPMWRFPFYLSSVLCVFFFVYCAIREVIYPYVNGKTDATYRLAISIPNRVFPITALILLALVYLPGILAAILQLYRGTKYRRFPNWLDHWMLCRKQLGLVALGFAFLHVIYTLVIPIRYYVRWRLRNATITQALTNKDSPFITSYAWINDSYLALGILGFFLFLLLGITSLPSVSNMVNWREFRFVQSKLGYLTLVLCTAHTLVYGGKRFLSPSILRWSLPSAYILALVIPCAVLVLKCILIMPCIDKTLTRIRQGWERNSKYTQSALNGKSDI
UniProt Q8VCR7: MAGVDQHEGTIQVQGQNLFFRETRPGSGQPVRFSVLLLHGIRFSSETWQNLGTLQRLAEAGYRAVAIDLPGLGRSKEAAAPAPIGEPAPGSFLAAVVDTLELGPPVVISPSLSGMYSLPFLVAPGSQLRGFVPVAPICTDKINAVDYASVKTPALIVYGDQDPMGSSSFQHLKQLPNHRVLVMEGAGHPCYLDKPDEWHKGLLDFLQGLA
UniProt Q91VX2: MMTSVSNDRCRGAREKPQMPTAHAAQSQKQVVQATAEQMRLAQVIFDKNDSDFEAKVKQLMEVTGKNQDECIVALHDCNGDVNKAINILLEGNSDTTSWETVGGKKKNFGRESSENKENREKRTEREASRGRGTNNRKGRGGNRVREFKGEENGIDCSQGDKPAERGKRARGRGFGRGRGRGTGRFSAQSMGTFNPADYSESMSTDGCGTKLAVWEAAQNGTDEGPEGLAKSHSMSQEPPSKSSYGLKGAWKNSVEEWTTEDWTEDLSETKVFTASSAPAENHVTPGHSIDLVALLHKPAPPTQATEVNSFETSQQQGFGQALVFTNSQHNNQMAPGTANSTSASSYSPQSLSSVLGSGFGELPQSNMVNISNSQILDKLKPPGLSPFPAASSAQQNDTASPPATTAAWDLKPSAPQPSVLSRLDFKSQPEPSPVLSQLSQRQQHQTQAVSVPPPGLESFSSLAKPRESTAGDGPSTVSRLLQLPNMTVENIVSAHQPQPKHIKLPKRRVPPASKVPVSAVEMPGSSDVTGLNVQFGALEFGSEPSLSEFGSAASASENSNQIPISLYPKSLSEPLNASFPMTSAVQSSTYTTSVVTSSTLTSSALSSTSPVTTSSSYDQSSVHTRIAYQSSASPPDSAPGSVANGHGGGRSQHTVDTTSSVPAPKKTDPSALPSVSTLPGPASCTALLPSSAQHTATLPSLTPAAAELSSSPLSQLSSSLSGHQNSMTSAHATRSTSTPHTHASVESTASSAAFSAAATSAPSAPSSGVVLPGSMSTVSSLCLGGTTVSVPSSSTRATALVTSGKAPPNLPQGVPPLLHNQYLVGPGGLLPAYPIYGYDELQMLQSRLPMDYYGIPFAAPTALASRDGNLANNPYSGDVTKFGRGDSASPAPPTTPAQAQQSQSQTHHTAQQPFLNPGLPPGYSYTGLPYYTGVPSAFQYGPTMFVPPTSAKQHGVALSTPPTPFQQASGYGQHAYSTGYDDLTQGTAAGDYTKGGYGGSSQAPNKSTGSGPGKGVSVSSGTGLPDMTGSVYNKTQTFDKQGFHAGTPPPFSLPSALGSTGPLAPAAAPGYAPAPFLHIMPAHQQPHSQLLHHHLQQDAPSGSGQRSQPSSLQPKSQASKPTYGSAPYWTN
UniProt Q924D0: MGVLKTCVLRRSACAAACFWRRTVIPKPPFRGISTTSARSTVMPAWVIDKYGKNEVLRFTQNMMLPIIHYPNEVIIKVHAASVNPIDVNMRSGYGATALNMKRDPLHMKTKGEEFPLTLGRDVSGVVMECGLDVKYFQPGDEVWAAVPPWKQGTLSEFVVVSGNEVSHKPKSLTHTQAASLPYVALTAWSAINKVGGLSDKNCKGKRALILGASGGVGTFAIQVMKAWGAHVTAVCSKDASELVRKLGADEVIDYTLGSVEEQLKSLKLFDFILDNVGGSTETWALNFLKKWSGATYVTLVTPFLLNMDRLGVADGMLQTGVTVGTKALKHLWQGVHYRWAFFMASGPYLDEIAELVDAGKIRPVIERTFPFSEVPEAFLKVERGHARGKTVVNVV
UniProt Q91W34: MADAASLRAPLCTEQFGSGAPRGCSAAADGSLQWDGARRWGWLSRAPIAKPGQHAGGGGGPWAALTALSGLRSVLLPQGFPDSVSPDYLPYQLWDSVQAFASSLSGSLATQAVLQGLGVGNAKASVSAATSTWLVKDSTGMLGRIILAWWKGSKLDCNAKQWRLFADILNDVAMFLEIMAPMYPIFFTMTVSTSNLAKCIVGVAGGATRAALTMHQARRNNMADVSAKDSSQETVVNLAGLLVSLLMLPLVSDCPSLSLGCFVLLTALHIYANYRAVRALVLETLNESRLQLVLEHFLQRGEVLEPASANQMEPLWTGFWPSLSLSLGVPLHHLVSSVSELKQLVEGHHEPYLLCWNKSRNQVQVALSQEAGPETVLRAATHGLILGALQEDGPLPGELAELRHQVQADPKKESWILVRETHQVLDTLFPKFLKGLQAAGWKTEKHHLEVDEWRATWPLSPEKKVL
UniProt Q91VR5: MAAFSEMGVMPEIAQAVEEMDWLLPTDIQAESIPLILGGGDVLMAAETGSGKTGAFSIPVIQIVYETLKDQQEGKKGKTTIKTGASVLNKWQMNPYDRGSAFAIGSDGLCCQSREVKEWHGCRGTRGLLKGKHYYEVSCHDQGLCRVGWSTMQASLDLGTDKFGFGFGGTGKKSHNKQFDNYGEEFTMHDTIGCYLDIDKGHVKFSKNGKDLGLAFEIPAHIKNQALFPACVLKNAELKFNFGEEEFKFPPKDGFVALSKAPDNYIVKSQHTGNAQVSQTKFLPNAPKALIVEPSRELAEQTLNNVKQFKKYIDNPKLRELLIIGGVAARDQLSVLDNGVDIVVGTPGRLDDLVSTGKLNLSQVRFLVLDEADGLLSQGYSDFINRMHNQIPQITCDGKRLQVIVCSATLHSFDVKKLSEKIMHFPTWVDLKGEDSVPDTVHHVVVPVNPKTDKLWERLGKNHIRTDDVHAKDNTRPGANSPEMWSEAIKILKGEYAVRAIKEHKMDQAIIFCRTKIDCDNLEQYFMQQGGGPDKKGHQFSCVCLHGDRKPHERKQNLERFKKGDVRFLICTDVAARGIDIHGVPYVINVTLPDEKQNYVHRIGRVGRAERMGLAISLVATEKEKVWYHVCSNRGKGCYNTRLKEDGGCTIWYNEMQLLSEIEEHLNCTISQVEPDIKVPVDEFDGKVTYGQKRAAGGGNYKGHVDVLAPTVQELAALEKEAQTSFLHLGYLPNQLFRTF
UniProt Q8VEB4: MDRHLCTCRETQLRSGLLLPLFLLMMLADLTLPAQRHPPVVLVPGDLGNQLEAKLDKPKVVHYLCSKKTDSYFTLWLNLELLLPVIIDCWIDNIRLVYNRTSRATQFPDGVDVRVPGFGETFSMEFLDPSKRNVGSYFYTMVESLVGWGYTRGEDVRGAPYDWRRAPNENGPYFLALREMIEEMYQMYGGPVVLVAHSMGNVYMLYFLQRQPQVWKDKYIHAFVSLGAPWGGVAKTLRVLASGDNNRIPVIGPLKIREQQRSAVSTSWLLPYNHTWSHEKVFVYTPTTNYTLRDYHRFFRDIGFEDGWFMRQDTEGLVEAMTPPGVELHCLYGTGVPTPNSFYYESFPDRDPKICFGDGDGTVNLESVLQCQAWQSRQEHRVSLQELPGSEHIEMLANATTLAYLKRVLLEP
UniProt Q99J99: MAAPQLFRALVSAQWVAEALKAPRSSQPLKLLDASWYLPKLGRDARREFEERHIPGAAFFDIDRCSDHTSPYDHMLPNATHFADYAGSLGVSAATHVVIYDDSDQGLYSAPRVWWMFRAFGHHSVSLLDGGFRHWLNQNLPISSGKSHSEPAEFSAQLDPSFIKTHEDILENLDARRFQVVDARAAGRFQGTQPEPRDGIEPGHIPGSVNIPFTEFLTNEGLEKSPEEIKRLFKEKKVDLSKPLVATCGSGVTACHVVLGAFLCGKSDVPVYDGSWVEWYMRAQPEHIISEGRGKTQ
UniProt Q91XC8: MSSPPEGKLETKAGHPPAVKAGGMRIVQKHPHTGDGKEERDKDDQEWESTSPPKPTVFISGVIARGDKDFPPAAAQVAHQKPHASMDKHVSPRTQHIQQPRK

What follows are targets tested with CN[C@@H]1C[C@H]2O[C@@](C)([C@@H]1OC)n1c3ccccc3c3c4c(c5c6ccccc6n2c5c31)C(=O)NC4 [staurosporine] (assay: log2 fold change of pooled soluble protein (PISA), ligand vs vehicle (log2 ratio); higher = more thermally stabilized). Settings: ligand concentration: 20 uM; assay format: PISA pool 52.9/55.5/58.6 C.

Target | log2 fold change of pooled soluble protein
UniProt Q921I0 | -0.18
UniProt Q91W50 | -0.332
UniProt Q8VDP2 | -0.117
UniProt Q91WT9 | -0.0387
UniProt Q925N0 | 0.463
UniProt Q8VE42 | 0.187
UniProt Q921G7 | 0.0942
UniProt Q99J47 | 0.0765
UniProt Q91VM5 | 0.000474
UniProt Q91XE0 | 0.0418
UniProt Q925B0 | 0.515
UniProt Q91VH6 | 0.0251
UniProt Q8VH51 | -0.0129
UniProt Q99J45 | 0.114
UniProt Q922D8 | -0.109
UniProt Q923B6 | 0.0362
UniProt Q8VDG5 | -0.0576
UniProt Q8VCR7 | -0.0181
UniProt Q91VX2 | -0.0176

Looked up one by one from above:
Target | log2 fold change of pooled soluble protein
UniProt Q91VH6 | 0.0251
UniProt Q921G7 | 0.0942

The list goes on.

Target | log2 fold change of pooled soluble protein
UniProt Q924D0 | -0.194
UniProt Q91WB4 | -0.292
UniProt Q921Z5 | -0.202
UniProt Q91W34 | -0.00634
UniProt Q91VR5 | -0.277
UniProt Q91YR7 | -0.121
UniProt Q8VDP4 | -0.212
UniProt Q923Z3 | -0.0569
UniProt Q8VEM8 | -0.0669
UniProt Q8VEB4 | -0.0722
UniProt Q99J99 | 0.0235
UniProt Q923D2 | 0.00887
UniProt Q91ZU1 | -0.0741
UniProt Q91XC8 | 0.437
UniProt Q8VCM8 | -0.235
UniProt Q8VCX1 | 0.0962
UniProt Q8VCR2 | -0.0261
UniProt Q8VE19 | -0.0289
